# In PubChem BioAssay AID504444 (National Center for Advancing Translational Sciences (NCATS), 2011):
# Hit rate of the full screen: of about 360,000 compounds, about 7,500 (2.1%) were called active. This list was built around the results that the source calls inconclusive (neither active nor inactive); the mix of calls is not that of the screen. Calls come from the whole dose curve; as a rule, active = well fitted inhibition curve with a large enough effect; inconclusive = small, poorly fitted or top-dose-only effect, or effect the other way; inactive = flat fitted curve, though single readings scatter. A potency beside an inconclusive call is a rough fit, not a confirmed value.
# Assay: Nrf2 qHTS screen for inhibitors; note: nearly all actives have a fitted effect of over 60% in size
# Details: A549 ARE-Fluc reporter, luciferase luminescence, 18-24 h; activity change, negative = inhibition: at 46 µM (top of the series)
# Summary of the method: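 Nrf2 function is reported as luminescence of an ARE-controlled luciferase in A549 cells. Compounds were tested at several concentrations, and a CellTiter-Fluor read on the same wells flagged cytotoxicity.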
# % is set by controls: 0 for no effect and ±100 for the full control effect; potency is the fitted concentration of half-maximal effect.
SMILES,Potency,"activity change, negative = inhibition"
Nc1ccc2oc(C3CCCCC3)nc2c1,"inconclusive: 7.31 µM [activator, partial curve]",
O=C(c1cc(-c2ccccc2Cl)nc2ccccc12)N1CCN(c2ccccn2)CC1,"inconclusive: 4.11 µM [falling, partial curve, poor fit]",
Cc1ccc(-c2csc(NCCn3c(-c4ccncc4)nc4ccccc43)n2)cc1,"inconclusive: 7.31 µM [activator, full curve, poor fit]",
COCC(C)n1c(SCc2cc(=O)n3cc(C)ccc3n2)nc2ccccc2c1=O (configuration not stated),"inconclusive: 25.9 µM [activator, single point]",
CN1CCN(/C=N/c2sc3c(c2C#N)CCCCC3)CC1,"inconclusive: 6.51 µM [activator, partial curve]",
O=C(Nc1ccc(C(F)(F)F)cc1)c1ccc(NC(=O)C2CCCO2)cc1 (configuration not stated),active: 20.6 µM,
COc1cccc(N2CCN(c3ccc4nnc(CCC(=O)O)n4n3)CC2)c1,inactive,
COc1ccc(C2CC(C(F)(F)F)n3ncc(C(=O)Nc4c(C)n(C)n(-c5ccccc5)c4=O)c3N2)cc1 (configuration not stated),"inconclusive: 8.2 µM [activator, partial curve]",
O=C(NC1CCCCC1)c1cccc(OCc2ccccc2)c1,"inconclusive: 20.6 µM [falling, partial curve, poor fit]",
COc1cccc(C(O)c2cnc(C(C)C)n2C)c1OC (configuration not stated),"inconclusive: 0.92 µM [falling, partial curve, poor fit]",
COc1ccc(C2C3C=CCCC3(C)C(=O)N2Cc2ccccc2)cc1Cl (configuration not stated),"inconclusive: 29.1 µM [falling, single point]",
Cc1cccc(NC(=S)NC(=O)Cc2ccccc2)c1C,"inconclusive: 29.1 µM [falling, single point]",
COc1cccc(CNC(=O)COc2ccc(C(=O)c3ccccc3)cc2)c1,"inconclusive: 16.4 µM [falling, partial curve]",
CCN(CC)S(=O)(=O)c1nnc(NC(=O)COc2cccc(C)c2)s1,"inconclusive: 7.31 µM [activator, partial curve, poor fit]",
CCC(=O)c1ccc(OCCn2cnc3ccccc32)cc1,"inconclusive: 3.66 µM [activator, full curve]",
Cc1cc(C(=O)NNc2ccc(C)c(C)c2)no1,inactive,
COc1ccc(C(C)=O)c(Oc2nc(CN3CCOCC3)nc3scc(-c4cccs4)c23)c1,"inconclusive: 25.9 µM [falling, single point]",
CCC1(c2ccccc2)C(=O)NCNC1=O,"inconclusive: 29.1 µM [falling, single point]",
C/C(=N/N=C/c1ccc(N(C)C)cc1)c1ccccc1,"inconclusive: 1.16 µM [activator, partial curve]",
COc1cccc(/C=C/C(=O)c2ccc3c(c2)OCCO3)c1OC,"inconclusive: 29.1 µM [falling, single point]",
Cc1cc(=O)[nH]c(Sc2c(-c3ccccc3)c3ccccc3[nH]c2=O)n1,"inconclusive: 0.0052 µM [falling, full curve, poor fit]",

SMILES,Potency,"activity change, negative = inhibition"
Cc1cccc(NC(=O)Cn2c(=O)n(CCc3ccccc3)c(=O)c3sc4ccccc4c32)c1,"inconclusive: 0.461 µM [activator, full curve, poor fit]",
CC(C)c1cc(C(=O)N2CCCC(C(=O)c3ccc4ccccc4c3)C2)on1 (configuration not stated),"inconclusive: 29.1 µM [falling, single point]",
CCN(CC)C(=O)CSc1nnc2nnc3cc(OC)ccc3n12,active: 18.4 µM,
COc1ccc(C2(C)NC(=O)NC2=O)cc1OC (configuration not stated),inactive,
CC1(C)Cc2c(sc(NC(=O)C(=O)N3CCCCC3)c2C(=O)O)CO1,"inconclusive: 20.6 µM [falling, single point]",
O=C(CCC1CCCCC1)N1CCN(Cc2ccc3c(c2)OCO3)CC1,"inconclusive: 8.2 µM [falling, partial curve, poor fit]",
CC(=O)c1c(C)[nH]c(C(=O)COc2ccc3c(C)cc(=O)oc3c2)c1C,"inconclusive: 20.6 µM [falling, partial curve, poor fit]",
O=C(OC1CCCCC1=O)c1cc(Cl)ccc1[N+](=O)[O-] (configuration not stated),inactive,
CCC(c1nnnn1C(C)(C)CC)N(CCN1CCOCC1)Cc1cc2cc(C)ccc2[nH]c1=O (configuration not stated),"inconclusive: 32.6 µM [activator, single point]",
COc1ccc(CC(=O)NNC(=O)CSc2nc(C)c(C)c(=O)[nH]2)cc1,"inconclusive: 23.1 µM [activator, single point]",
O=[N+]([O-])c1ccc(/C=N/Nc2nc(-c3ccccc3)c3cc(Br)ccc3n2)o1,inactive,
COc1ccc(-c2c(C)nn3c(-c4ccccc4)cc(-c4ccccc4)nc23)cc1OC,"inconclusive: 29.1 µM [activator, partial curve, poor fit]",
CCC(C)NC(=S)Nc1ccc(C(=O)OC)cc1 (configuration not stated),active: 18.4 µM,
COC(=O)c1ccc(NC(=O)CCNS(=O)(=O)c2cccc3nsnc23)cc1,,inactive: -9.27% [at 9.27 µM]
O=C(OCC(=O)N1CCN(C(=O)c2ccco2)CC1)c1c(Cl)cccc1Cl,"inconclusive: 18.4 µM [falling, single point]",
COC(=O)[C@@H]1CCCN1C(=O)CCc1nnc(CCC2CCCCC2)o1,"inconclusive: 29.1 µM [activator, single point]",
CCCCCN1CC(=O)N2Cc3[nH]c4ccccc4c3C[C@H]2C1=O,"inconclusive: 29.1 µM [falling, single point]",
O=C(Nc1ccccc1C(=O)O)c1cccc(NS(=O)(=O)c2ccc(Br)cc2)c1,inactive,
Clc1ccc(N/N=C/c2cccs2)nn1,"inconclusive: 20.6 µM [activator, partial curve, poor fit]",
O=C(O)c1cc(N/N=C/c2ccc(N3CCOCC3)cc2)ccc1Cl,"inconclusive: 2.31 µM [activator, partial curve]",
O=C(O)c1cccc(Nc2c3ccccc3nc3ccccc23)c1,"inconclusive: 18.4 µM [falling, single point]",

# An excerpt of these results, with tabs.
SMILES	Potency	activity change, negative = inhibition
COc1ccc(-c2c(C)nn3c(-c4ccccc4)cc(-c4ccccc4)nc23)cc1OC	inconclusive: 29.1 µM [activator, partial curve, poor fit]	
O=C(Nc1ccccc1C(=O)O)c1cccc(NS(=O)(=O)c2ccc(Br)cc2)c1	inactive	
